Measured values published in patent publication US20180127503A1 (EUREKA THERAPEUTICS, published 2018).
No constants are given. Whether binding was seen depends on the method and setting. Some results given as binding are weak or reduced against the parent protein; the word gives no strength.

The chains behind the UniProt entries cited, without tags or fusion partners. Where a name states a change or a piece, a line headed by the entry shows the natural chain unless it says otherwise.
UniProt Q01974: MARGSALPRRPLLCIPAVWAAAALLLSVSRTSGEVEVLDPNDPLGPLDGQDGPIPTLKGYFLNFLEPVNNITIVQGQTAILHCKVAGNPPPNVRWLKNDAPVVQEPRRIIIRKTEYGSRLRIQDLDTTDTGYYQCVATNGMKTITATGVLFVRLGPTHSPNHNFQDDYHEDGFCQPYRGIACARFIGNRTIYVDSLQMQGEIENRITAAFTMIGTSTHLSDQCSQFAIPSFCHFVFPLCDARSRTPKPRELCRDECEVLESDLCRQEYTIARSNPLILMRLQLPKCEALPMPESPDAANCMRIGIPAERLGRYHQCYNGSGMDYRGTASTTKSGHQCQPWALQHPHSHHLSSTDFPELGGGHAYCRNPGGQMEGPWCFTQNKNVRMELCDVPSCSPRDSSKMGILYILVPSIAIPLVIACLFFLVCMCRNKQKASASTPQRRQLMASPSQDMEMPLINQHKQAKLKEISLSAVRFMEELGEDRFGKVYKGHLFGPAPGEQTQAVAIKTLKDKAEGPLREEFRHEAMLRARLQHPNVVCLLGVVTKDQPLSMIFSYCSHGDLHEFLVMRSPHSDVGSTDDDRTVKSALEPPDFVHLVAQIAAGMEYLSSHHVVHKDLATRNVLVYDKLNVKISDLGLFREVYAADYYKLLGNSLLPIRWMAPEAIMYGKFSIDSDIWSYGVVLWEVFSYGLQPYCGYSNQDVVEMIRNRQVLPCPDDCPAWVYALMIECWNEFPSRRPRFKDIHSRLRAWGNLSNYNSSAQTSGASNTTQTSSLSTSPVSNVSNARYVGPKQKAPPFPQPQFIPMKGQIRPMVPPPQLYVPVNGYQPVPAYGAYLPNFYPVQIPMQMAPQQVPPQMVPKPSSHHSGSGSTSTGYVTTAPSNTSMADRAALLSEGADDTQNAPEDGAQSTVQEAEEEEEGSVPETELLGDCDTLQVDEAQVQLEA

B1: ROR2 clone #240 scFv phage antibody (scFv, V domains shown)
VH: QITLKESGPELVKPTQTLTLTCTFSGFSLSTSGMSVSWIRQPPGKALEWLARIDWDDDKYYSTSLKTRLTISKDTSKNQVVLTMTNTDPVDTATYYCARGFYLAYGSYDSWGQGTLVTVSS
VL: QSALTQPASVSGSPGQSITISCTGTSGDVGGYNYVSWYQHHPGKAPKLIIYDVNKRPSGFSDRFSGSKSGNTASLTISGLQAEDEADYYCSSYTSTSTVFGGGTKLTVLG
B2: ROR2-240 full length human IgG1 antibody (antibody, V domains shown)
VH: B1 VH
VL: B1 VL
notes: also called clone #240 IgG1

How the values were obtained:
[1] = target: T1, human ROR2 ECD-Fc fusion protein (human, UniProt Q01974 34-403); experiment: phage ELISA on coated ROR2 ECD-Fc
T1 construct: Panning and phage ELISA antigen; also called human ROR2-ECD (phage ELISA); not shown: Fc part and any linker are not described

[2] = target: T1, human ROR2 ECD-Fc fusion protein; experiment: summary of the phage clone screening (ELISA)
[3] = target: human ROR2 extracellular domain (ROR2 ECD recombinant protein) (human) (UniProt Q01974); experiment: ELISA, 20 ng coated ROR2 ECD, anti-human Fc-HRP (FIG. 13)
[4] = target: human ROR2 extracellular domain (ROR2 ECD recombinant protein) (human) (UniProt Q01974); experiment: ELISA, 20 ng coated ROR2 ECD, anti-human Fc-HRP
[5] = target: human ROR2 extracellular domain (ROR2 ECD recombinant protein) (human) (UniProt Q01974); experiment: kinetic binding analysis

| Binder | binding [1] | binding [2] | binding [3] | binding [4] | binding [5] |
| --- | --- | --- | --- | --- | --- |
| B1 | binds | binds |  |  |  |
| B2 |  |  | binds | binds | binds |
